Laboratory results as given in paper PMC5133643.
Results are given in words; binding and its absence hold for the method and conditions named. In cells and extracts the contact can be indirect. A result given as binding can be weak or reduced; the word gives no strength. Tags and fused reporters may be left off the sequences shown.

Molecular target: T1, 6X-His tagged Hha (hemolysin expression modulating protein), chromosomally tagged (S. Typhimurium) (UniProt Q7CR17)
T1 sequence: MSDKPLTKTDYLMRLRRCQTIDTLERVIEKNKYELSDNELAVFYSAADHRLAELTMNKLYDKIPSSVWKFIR
Experiment: pull-down; lysates of cells with chromosomally His-tagged protein bound to Ni-NTA beads; washed with 50 mM Tris pH 8.0, 10 mM imidazole; eluted with 200 mM imidazole; 12% SDS-PAGE; blots with anti-His, re-probed with anti-TomB; wild-type lysate as control

TomB (previously known as YbaJ)
binding: binds
